Measured values as given in patent US20250304666A1.
No constants are given. Whether binding was seen depends on the method and setting. Some results given as binding are weak or reduced against the parent protein; the word gives no strength.

The chains behind the UniProt entries cited, without tags or fusion partners. Where a name states a change or a piece, a line headed by the entry shows the natural chain unless it says otherwise.
UniProt P08603: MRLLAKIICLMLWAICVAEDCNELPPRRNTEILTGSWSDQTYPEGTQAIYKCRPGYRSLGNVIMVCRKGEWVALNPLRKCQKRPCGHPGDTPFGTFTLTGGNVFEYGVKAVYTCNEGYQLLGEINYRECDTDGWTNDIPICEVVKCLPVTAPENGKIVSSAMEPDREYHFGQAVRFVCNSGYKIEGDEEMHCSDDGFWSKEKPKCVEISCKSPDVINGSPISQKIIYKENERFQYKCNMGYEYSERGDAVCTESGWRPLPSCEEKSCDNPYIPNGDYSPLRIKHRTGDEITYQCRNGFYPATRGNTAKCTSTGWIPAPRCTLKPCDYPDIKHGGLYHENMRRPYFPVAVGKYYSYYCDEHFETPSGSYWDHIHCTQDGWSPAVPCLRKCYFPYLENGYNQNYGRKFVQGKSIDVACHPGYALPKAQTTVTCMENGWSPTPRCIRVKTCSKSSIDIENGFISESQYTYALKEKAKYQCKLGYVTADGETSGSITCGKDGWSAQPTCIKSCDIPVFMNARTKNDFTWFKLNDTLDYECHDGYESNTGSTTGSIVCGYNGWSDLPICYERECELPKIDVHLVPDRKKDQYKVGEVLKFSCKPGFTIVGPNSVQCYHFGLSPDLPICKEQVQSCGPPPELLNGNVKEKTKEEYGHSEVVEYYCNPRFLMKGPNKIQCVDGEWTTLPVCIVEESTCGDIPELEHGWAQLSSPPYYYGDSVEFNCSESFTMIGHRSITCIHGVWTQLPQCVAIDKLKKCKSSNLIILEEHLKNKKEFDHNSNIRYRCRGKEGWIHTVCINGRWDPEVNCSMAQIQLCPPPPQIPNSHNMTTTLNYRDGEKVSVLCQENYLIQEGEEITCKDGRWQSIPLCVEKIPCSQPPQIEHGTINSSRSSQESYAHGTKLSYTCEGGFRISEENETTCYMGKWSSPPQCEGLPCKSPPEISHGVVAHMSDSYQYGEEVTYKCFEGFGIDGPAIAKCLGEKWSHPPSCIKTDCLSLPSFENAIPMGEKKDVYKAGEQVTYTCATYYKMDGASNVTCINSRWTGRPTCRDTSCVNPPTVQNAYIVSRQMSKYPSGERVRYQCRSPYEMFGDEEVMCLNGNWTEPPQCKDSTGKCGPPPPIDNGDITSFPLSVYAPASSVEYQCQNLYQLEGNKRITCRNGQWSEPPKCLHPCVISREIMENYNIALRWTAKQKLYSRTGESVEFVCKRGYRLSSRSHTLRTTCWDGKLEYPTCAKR

Tests used:
[1] = target: reduced CFH (Homo sapiens (Human)) (UniProt P08603); test: ELISA on 0.2 ug/ml reduced CFH after mAb 70 C 1 hour
[2] = target: reduced CFH (Homo sapiens (Human)) (UniProt P08603); test: ELISA on reduced CFH

binding [1]: binds
binding [2]: binds
B1: ATL_0004715 (antibody, human IgG1, kappa, V domains shown)
VH: EVQLVESGGGVVQPGRSLRLSCAASGFTFSRYGMHWVRQAPGKGLEWVAVMSYDGSTKYYADSVKGRFAISRDNPKNTLFLQMNSLRPDDTAVYYCAKGGAAAAVMDVWGKGTTVTVSS
VL: DIVMTQSPDSLTVSLGERATISCKSSQRLLYSSNNKNYLAWYQQKPGQPPKLLMYWASTRESGVPDRFSGSGSGTDFSLTISSLQAEDVAVYYCQQYYNPPWTFGQGTKVEVKR
